Measured values taken from US10471057B2 (THE SCRIPPS RESEARCH INSTITUTE, priority 2014, dated 2019).

Assay: general procedure: Fmoc solid-phase peptide synthesis; Fmoc-Rink amide resin (0.59 mmol/g); DIC/HOAt/DIEA; bromoacetic acid/DIC for peptoid units
Conditions: whole synthesis, scale of the general procedure 0.3 mmol

N3-2H-K4NMeS-TAMRA
isolated yield: 0.1%
